Experimental data as given in PMC10163288.
Some of the results follow.

B1: il2ra_site2_2erj_normal_mot_HHH_b1_07806_000000211_0001_42_56_H_._HHH_b2_00207_0001_0000400018_0000001_0_af2pred_0001_1_af2pred_swapped (protein)
chain: SSSSSDEEEYRREVEELLEEAKRIPDIREALKLLEEASRVAAELGDDELFHLVDRVARELSSSSS
B2: il2ra_site2_3nfp_normal_mot_HHH_b2_04451_000000238_0001_21_37_H_._HHH_b2_06571_af2_0001_0000400009_0000001_0 (protein)
chain: SSSSDEEERLEELIEELERLEEKGDRVEAFEVLLELSKLALEVGDEEAVRFVLRYFERLQSSSSS
B3: il2ra_site1_2b5i_sap_14_mot_HHH_b2_07442_af2_000000069_0001_1_16_H_._HHH_b2_06599_0001_0000300022_0000001_1_0001_af2pred_dldesign_0_af2pred (protein)
chain: SSSSSSSDPLALIEEAKRLYAEGKRREALEALDRAAKLADAAGDEELEDEIEELAKLISSSSSSS
B4: il2ra_site1_3nfp_sap_10_mot_HHH_b1_07180_af2_000000260_0001_1_19_H_._HHH_b2_01298_0001_0000300012_0000001_0_0001 (protein)
chain: THRRHVAKMIERMAKKLGVPSVEVSVHNGTVHVTLEGTDEAAREAAKAAEHAAEWAGVEFEITFE
B5: il2ra_site2_3nfp_normal_mot_HHH_b2_06150_000000217_0001_39_53_H_._HHH_b2_05833_0001_0000200009_0000001_0_af2pred_0001_af2pred (protein)
chain: SSSDAEERVRELIEEAKELAERGNPEEAREVLAEAAELAWELGDTELAMEIAELLLRVEELSSSS
B6: il2ra_site1_3nfp_normal_mot_eb5a5eebac1e5153f932cc6c3f4b2787_0001_af2_000000065_0001_18_33_H_._31bff7180b20e3ed47766ceefd9934be_0001_af2_0001_0000100001_0000001 … (protein)
chain: DEEEELAELIRQAVEKNDPELLKRVAEELLRKLGDPKEAIRLFEELLEKAGLSPREKYLALKLST
B7: il2ra_site2_2erj_normal_mot_HHH_b1_06554_af2_000000190_0001_44_57_H_._HHH_b2_07703_0001_0000100004_0000001_0_af2pred_0001_af2pred_1_swapped (protein)
chain: SSSSSSSIEERVKELLEEAEKVENLEEAEEILDEAFELALQLGNPELLKLIIKVAARRSSSSSSS
B8: il2ra_site1_3nfp_sap_11_mot_40ac32ce855e0fd9c7bcc7eb247393e9_0001_000000113_0001_1_14_H_._HHH_b2_01948_af2_0001_0000100007_0000001_0_0001_af2pred_0001_af2pred (protein)
chain: SSDEYFEELVREVEELAEEKNDEEVRELAERARRLYREAKENRDHRAAHEAIRIVAKLRMEVTSS
B9: il2ra_site2_2erj_normal_mot_HHH_b1_00071_af2_000000225_0001_40_56_H_._HHH_b2_07268_0001_0000500020_0000001_0_af2pred_0001_af2pred (protein)
chain: SSSSTEALEEAARVLLRLSELLANGNPEEAEELVEEAEQRLEELGNPLLAEDVREYYERAKSSSS
B10: il2ra_site1_3nfp_sap_16_mot_HHH_b1_03720_af2_000000263_0001_1_17_H_._HHH_b1_05759_af2_0001_0000100006_0000001_0_0001 (protein)
chain: DEAKAVAKLIEDAAKAAGVPRVEVEVHNGTVEVTLEGTDEAARAAEEAAKQMAERFGLSFEITTE
B11: il2ra_site1_2b5i_normal_mot_f5ff40796168375b462bec8614a1db4a_0001_1_000000138_0001_53_65_H_._HHH_b1_07969_0001_0000900032_0000001_1_af2pred_dldesign_0_af2pred (protein)
chain: SSSSSSAREDVEELLERVRELRAAGRLDEARRLLTLARRIAKANNDEELIKEVEELEKLLSSSSS
B12: il2ra_site2_2erj_sap_33_mot_3b06bd03f1c6bceadc68eab912867b79_0001_000000296_0001_36_50_H_._817f55ea79620009d595c52c317e02eb_0001_1_af2_0001_0000300006_0000001_1 … (protein)
chain: SSSSDWLHRLYKLAVRILELLARGNPEEAREVLEELEELAEETDSENAKEAAEALERQLNSSSSS
B13: il2ra_site2_3nfp_sap_18_mot_HHH_b1_03376_000000004_0001_41_55_H_._HHH_b2_00201_af2_0001_0000100022_0000001_0_0001 (protein)
chain: SSSSSDDHEVYEQVVELLKRAAHIEDEEEVERLLEEARRLAEELGDPVLRRSVEDSARALSSSSS
B14: il2ra_site1_3nfp_normal_mot_5dea99290cf7e133ebc5b763b21a7a39_0001_000000141_0001_34_49_H_._HHH_b1_06472_0001_0000300025_0000001_0 (protein)
chain: SSSSDEEEKEVEELLEEARELYENGNPQEASKLLERIWKLISHIGNLELAELLYELMRELSSSSS
B15: il2ra_site1_2b5i_sap_14_mot_HHH_b1_05188_af2_000000065_0001_43_56_H_._HHH_b1_02810_0001_0000100001_0000001_0_0001_af2pred_0001_af2pred (protein)
chain: SSSSDELLERVLELLREADELAKNGNPEEARRVLEEALEIVEELGSKNLRRLVEAMLKLASSSSS
B16: il2ra_site2_3nfp_normal_mot_HHH_b1_05627_af2_000000038_0001_43_56_H_._HHH_b1_04379_0001_0000300012_0000001_1 (protein)
chain: SSSSDKAEEYLEVALEVLRELIEEGNEEAVEEVIRAIKLLAEALNDEEIERELKKLEEEFSSSSS
B17: il2ra_site1_2b5i_normal_mot_HHH_b1_01949_af2_000000166_0001_1_19_H_._HHH_b2_00613_0001_0000300041_0000001_0_af2pred_0001_af2pred (protein)
chain: SSSSDEEFQRVDELYREASRLFRSGDKEEAREVLREAQEIAEEANDPTAVKDLERFLRAASSSSS
B18: il2ra_site1_3nfp_normal_mot_ems_3hC_921_af2_000000143_0001_22_40_H_._b9b1aa0f98829a21a591038753170461_0001_1_af2_0001_0000300017_0000001_0_af2pred_0001_af2pred_ … (protein)
chain: SEEIAELLVRRAVEQNSPRLLKRILENLERNLGDPEEAKRLLEELLELVLGDPEEVERLLELAEE

target: il2ra, P01589; assay: yeast display titration

Apparent Kd, inactive:
B1 no binding seen, B2 no binding seen, B3 no binding seen, B4 > 0.492 µM, B5 no binding seen, B6 no binding seen, B7 no binding seen, B8 no binding seen, B9 no binding seen, B10 no binding seen, B11 no binding seen, B12 no binding seen, B13 no binding seen, B14 no binding seen, B15 no binding seen, B16 no binding seen, B17 no binding seen, B18 no binding seen
